Assay results taken from article PMC4159567.
No constants are given. Whether binding was seen depends on the method and setting. Some entries that bind do so weakly or less than the wild type. Where a sequence is shown, tags or fusion partners need not be part of it.

Legend:
GFP-(GA)50 (human) = assay: Western blot of high molecular weight species; Triton X-100 soluble and insoluble fractions of transfected HEK293T cells (48 h); samples heated in Laemmli's buffer
ATG-(GA)50-HA (human) = assay: Western blot of high molecular weight species; total lysates (Co-IP buffer plus 2 % SDS) of transfected HEK293T cells (48 h); samples heated in Laemmli's buffer
ATG-(GA)50-V5 (human) = assay: as above
ATG-(GA)100-V5 (human) = assay: as above
[1] = target: GFP-(GA)50 (AAV1, primary neurons) (human); assay: Western blot of high molecular weight species; lysates (Co-IP buffer with 2 % SDS) of primary mouse cortical neurons, seven days after AAV1 transduction

B1: GFP-(GA)50 (protein)
chain: GAGAGAGAGAGAGAGAGAGAGAGAGAGAGAGAGAGAGAGAGAGAGAGAGAGAGAGAGAGAGAGAGAGAGAGAGAGAGAGAGAGAGAGAGAGAGAGAGAGA
binding (GFP-(GA)50 (human)): binds

B2: ATG-(GA)50-HA (protein)
chain: MGAGAGAGAGAGAGAGAGAGAGAGAGAGAGAGAGAGAGAGAGAGAGAGAGAGAGAGAGAGAGAGAGAGAGAGAGAGAGAGAGAGAGAGAGAGAGAGAGAGA
binding (ATG-(GA)50-HA (human)): binds

B3: ATG-(GA)50-V5 (protein)
chain: B2 chain
binding (ATG-(GA)50-V5 (human)): binds

B4: ATG-(GA)100-V5 (protein)
chain: MGAGAGAGAGAGAGAGAGAGAGAGAGAGAGAGAGAGAGAGAGAGAGAGAGAGAGAGAGAGAGAGAGAGAGAGAGAGAGAGAGAGAGAGAGAGAGAGAGAGAGAGAGAGAGAGAGAGAGAGAGAGAGAGAGAGAGAGAGAGAGAGAGAGAGAGAGAGAGAGAGAGAGAGAGAGAGAGAGAGAGAGAGAGAGAGAGAGAGAGA
binding (ATG-(GA)100-V5 (human)): binds

B5: GFP-(GA)50 (AAV1, primary neurons) (protein)
chain: B1 chain
binding [1]: binds
